Reference: PubChem BioAssay AID652259 (Drosophila RNAi Screening Center, 2013)
The deposit covers about 22,000 reagents; this is a random part of those with a known target gene and a result. Of all reagents, 233 (1.1%) were called active. 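Light values are raw, unnormalised plate reads; the ratio scores behind the reporter calls were not deposited.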 Entries without a mark were called inactive. A plus sign joins genes that one reagent is predicted to hit. Reagent sequences are not shown. Not stated in the record: the amount of reagent, the time to read-out, the dose of the treatment.

Assay: 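Identify new Wingless signalling regulators in fly cells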 (primary screen)
System: Drosophila clone 8 imaginal disc epithelial cells
Knock-down reagent: long dsRNA against Drosophila genes
Treatment: pathway stimulated by co-transfected Wingless expression plasmid
Detection: 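Dual luciferase reads per well after Wingless plasmid stimulation: reporter firefly light and Renilla control light; activity is firefly divided by Renilla, a ratio not deposited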
Direction: firefly reporter light: higher = more Wg reporter light, before normalisation; Renilla control light: higher = more transfected or surviving cells
Call rule: 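Strong candidates differ from their plate mean by at least two out of four per-plate statistical tests; weak candidates meet just one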
Meaning of the calls: active = candidate regulator (raises or lowers reporter); inactive = not a candidate

target,amplicon,"firefly reporter light, replicate 1","firefly reporter light, replicate 2","Renilla control light, replicate 1","Renilla control light, replicate 2"
Bka (GeneID 46032),DRSC02757,1533,5298,672,2898
CLIP-190 (GeneID 35042),DRSC03283,20826,,4819,
galla-1 (GeneID 246485),DRSC05987,6546,,3033,
DNaseII (GeneID 48228),DRSC16310,3221,5426,929,1712
Pkn + Tsen15,DRSC21969,1.03e6,8.37e5,4.96e5,136
Ski6 (GeneID 34721),DRSC02491,4845,7532,1559,3174
CG31206 (GeneID 318627),DRSC13388,3504,,1804,
DIP-eta (GeneID 33793),DRSC02342,3428,6806,1120,2627
wnd (GeneID 40143),DRSC09626,4908,,2480,
wnd (GeneID 40143),DRSC11046,3321,,1225,
wnd (GeneID 40143),DRSC21373,3.23e5,4.20e5,1.74e5,1.99e5
dpr11 (GeneID 40800),DRSC12561,10841,,2225,
dpr11 (GeneID 40800),DRSC12562,18946,,2626,
dpr11 (GeneID 40800),DRSC12563,12626,,3968,
RhoGEF3 (GeneID 38050),DRSC08266,19482,7.30e5,5634,3.49e5
RhoGEF3 (GeneID 38050),DRSC08351,5510,,2416,
RhoGEF3 (GeneID 38050),DRSC08352,4891,,2080,
RhoGEF3 (GeneID 38050),DRSC08353,4756,,1946,
Gpo3 (GeneID 34776),DRSC01978,3220,6016,1446,3280
fd3F (GeneID 31336),DRSC17843,18547,,2953,
CG9570 (GeneID 33009),DRSC20687,29291,,1867,
Fibp (GeneID 40163),DRSC11031,3872,,2352,
CG18178 (GeneID 39138),DRSC10302,2432,,852,
CG13937 (GeneID 38249),DRSC08406,5302,,803,
Dic3 (GeneID 35763),DRSC06058,4005,8445,1274,3537
RpS27A (GeneID 34420),DRSC03421,2951,5440,1164,2199
Ugt37A2 (GeneID 41573),DRSC15861,20743,,6688,
ND-23 (GeneID 44207),DRSC15526,2183,5825,1159,956
CG2104 (GeneID 40702),DRSC12304,12506,,3396,
Actn3 (GeneID 44964),DRSC14106,15933,,1968,
CG13492 (GeneID 37487),DRSC04137,2140,7991,656,2694
CG15358 (GeneID 33366),DRSC00388,3144,6621,1349,2660
CG4467 (GeneID 42747),DRSC15585,21045,,18186,
CG4250 (GeneID 37599),DRSC04455,3095,9328,960,3861
CG12811 (GeneID 41229),DRSC14549,13932,,3010,
E2f2 (GeneID 35381),DRSC03320,11200,,4357,
CG13287 (GeneID 38660),DRSC09961,2598,,969,
CG13700 (GeneID 40013),DRSC10049,5976,,2776,
Irk2 (GeneID 42770),DRSC15569,3126,4789,1429,1796
wapl (GeneID 31187),DRSC18851,2104,4616,1068,1958
Atx-1 (GeneID 31624),DRSC18365,17798,,9744,
t-cup (GeneID 318986),DRSC01254,22133,,12225,
CG14785 (GeneID 31094),DRSC18604,2842,6861,682,1984
pen-2 (GeneID 251430),DRSC05722,20020,,12295,
chp (GeneID 43690),DRSC16925,1952,6028,659,2088
CG14258 (GeneID 43260),DRSC14753,9546,,3168,
CG31668 (GeneID 33395),DRSC22584,6.38e5,6.84e5,2.59e5,1.62e5
phol (GeneID 39095),DRSC10367,4480,,1784,
CG32576 (GeneID 318095),DRSC19136,3229,,1340,
CG12659 (GeneID 50403),DRSC17862,23290,,10086,
CG12522 (GeneID 39248),DRSC09088,1974,,1012,
CG32249 (GeneID 317939),DRSC08101,2449,,1415,
CG32249 (GeneID 317939),DRSC08177,1787,10966,1574,3909
CG32249 (GeneID 317939),DRSC22444,5.03e5,6.40e5,2.10e5,85408
sgl (GeneID 38760),DRSC21431,7.24e5,6.56e5,3.35e5,2.89e5
CG32983 (GeneID 50434),DRSC22367,4.72e5,5.46e5,1.16e5,1.53e5
Ant2 (GeneID 32008),DRSC19330,3452,6610,1217,2232
Wdr81 (GeneID 34616),DRSC02985,4903,,1361,
FucTA (GeneID 39653),DRSC10733,6992,,2643,
nudC (GeneID 39879),DRSC11096,7621,,3234,
nudC (GeneID 39879),DRSC11097,6706,,3149,
Crg-1 (GeneID 43900),DRSC22882,7.87e5,8.17e5,2.97e5,2.70e5
Dnz1 (GeneID 34503),DRSC03317,11628,,3521,
CG34178 + CG34177,DRSC00351,2200,5108,666,2109
CG2147 (GeneID 31759),DRSC18211,2823,5552,297,1676
brv1 (GeneID 40116),DRSC11076,8980,,2777,
CG42493 (GeneID 8674013),DRSC05309,19563,,16074,
Prat (GeneID 40935),DRSC16797,3698,,821,
IntS8 (GeneID 36886),DRSC07417,10834,,4291,
CG1354 (GeneID 31914),DRSC17902,18006,,7913,
etaTry (GeneID 36217),DRSC07613,6742,,2556,
meru (GeneID 39727),DRSC09400,3249,,850,
meru (GeneID 39727),DRSC09899,6199,,2484,
meru (GeneID 39727),DRSC10215,8675,,3192,
CG7607 (GeneID 39263),DRSC10889,7253,,3683,
CG11307 (GeneID 40400),DRSC11648,12114,8.25e5,5750,4.15e5
CG15056 (GeneID 32824),DRSC19630,22620,,10185,
CG15484 (GeneID 34682),DRSC02494,3286,9959,1645,4936
CG15484 (GeneID 34682),DRSC22836,5.29e5,4.84e5,2.44e5,3.21e5
CG15109 (GeneID 37195),DRSC06536,8000,,2474,
Gadd45 (GeneID 35646),DRSC06033,2685,9849,480,2332
CG14443 (GeneID 31595),DRSC17936,17937,,8599,
CG3760 (GeneID 37987),DRSC04415,3910,,1221,
Mul1 (GeneID 38472),DRSC08174,6048,,3131,
Dop2R (GeneID 33007),DRSC20683,27897,,10897,
Dop2R (GeneID 33007),DRSC20686,28763,,13927,
CG17404 (GeneID 41482),DRSC15234,18569,6.86e5,6723,3.09e5
Hmgcr (GeneID 42803),DRSC16704,20117,,11986,
CG17819 (GeneID 42579),DRSC15279,40273,,8070,
CG13946 (GeneID 50198),DRSC00364,2001,7589,1162,2981
Eig71Ek (GeneID 39712),DRSC11158,10104,,3858,
CG14245 (GeneID 3772449),DRSC14740,7033,,3088,
wcy (GeneID 32690),DRSC20132,3584,12932,876,1804
